Taken from: PubChem BioAssay AID1259281 (Sanger Institute, 2017)
Aim: 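Find knock-downs that kill colorectal cancer cells alone or strengthen targeted drugs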 (primary screen). Cell system: human COLO678 colorectal cancer cell line. Reagent: siRNA pool against human genes. Conditions: anchor drugs at fixed doses: BYL719 1 µM, cetuximab 5 µg/ml or trametinib 10 nM; DMSO vehicle for the siRNA-alone arm. Measured: 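Surviving cells scaled to non-targeting siRNA control as replicate means; robust z-score for knock-down alone; synergy scores weigh knock-down with drug against the predicted combined effect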. Reading the numbers: robust z-score, siRNA alone: higher = more viable cells; strongly negative means essential; viability, siRNA alone: higher = more surviving cells. Units: viability, siRNA alone in fraction of control. Rule for the call: 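Essential (knock-down alone) when the siRNA-alone robust z-score is below -3; otherwise no change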. Calls: active = essential (knock-down alone); inactive = no change.
In all, the deposit lists 794 reagents; shown is a random part of them. In the full data, 22 (2.8%) are marked active. 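Calls rest on knock-down alone only; drug synergy scores play no part in them.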 Entries without a mark were called inactive. No viability above 1 is reported: the scale is capped. Not all columns of the deposit are shown. Not stated in the record: the amount of reagent, the time to read-out.

For TNK2 [SID56478482] the deposit lists robust z-score, siRNA alone 0.473; viability, siRNA alone 1. CSNK1G1 [SID152156369] gave robust z-score, siRNA alone 0.473; viability, siRNA alone 1. Against TSSK1B [SID56478967], the entry reads robust z-score, siRNA alone 0.473; viability, siRNA alone 1. For PIK3C2A [SID152154179] the deposit lists robust z-score, siRNA alone 0.473; viability, siRNA alone 1. CAMK4 [SID56478933] showed robust z-score, siRNA alone 0.473; viability, siRNA alone 1. Knock-down of N4BP2 [SID152151934] came out at: robust z-score, siRNA alone 0.473; viability, siRNA alone 1.

After knock-down of TAF1 [SID56478970] the results were robust z-score, siRNA alone -1.6; viability, siRNA alone 0.934. For PIK3CA [SID135620605], the entry reads robust z-score, siRNA alone 0.473; viability, siRNA alone 1. RPS6KA1 [SID152152227] gave robust z-score, siRNA alone 0.473; viability, siRNA alone 1. Knock-down of MATK [SID152153842] came out at: robust z-score, siRNA alone 0.473; viability, siRNA alone 1. NME6 [SID56479120] scored robust z-score, siRNA alone 0.473; viability, siRNA alone 1. After knock-down of PIK3R1 [SID135620606], the screen gave robust z-score, siRNA alone 0.473; viability, siRNA alone 1.

For MAP2K7 [SID56478752], the entry reads robust z-score, siRNA alone 0.473; viability, siRNA alone 1. RPS6KA2 [SID135620862] scored robust z-score, siRNA alone -3.85 (active); viability, siRNA alone 0.863. After knock-down of ROCK2 [SID135620850] the results were robust z-score, siRNA alone 0.473; viability, siRNA alone 1. With knock-down of RNASEL [SID56478962], the record shows robust z-score, siRNA alone 0.473; viability, siRNA alone 1. Silencing of LMTK3 [SID152150242] resulted in: robust z-score, siRNA alone 0.468; viability, siRNA alone 1. With knock-down of CSK [SID56478490], the screen gave robust z-score, siRNA alone 0.473; viability, siRNA alone 1.

CREBBP [SID152156768] showed robust z-score, siRNA alone -2.99; viability, siRNA alone 0.89.

No new results follow: 2 of the entries above.
TAF1 [SID56478970] | robust z-score, siRNA alone = -1.6; viability, siRNA alone = 0.934
PIK3CA [SID135620605] | robust z-score, siRNA alone = 0.473; viability, siRNA alone = 1
